These are yes or no findings as the source states them, for the method shown. In cells and extracts the contact can be indirect. Some results given as binding are weak or reduced against the parent protein; the word gives no strength.
What was measured:
[1] = molecular target: T1, tBid, truncated C-terminal fragment of Bid (human (endogenous in Mia PaCa-2, G3K, G3K-R, PANC-1)) (UniProt P55957); experiment: proximity ligation; PLA for ATR-tBid foci on G3K orthotopic xenograft tumour samples, mice with or without LB-100
T1 sequence: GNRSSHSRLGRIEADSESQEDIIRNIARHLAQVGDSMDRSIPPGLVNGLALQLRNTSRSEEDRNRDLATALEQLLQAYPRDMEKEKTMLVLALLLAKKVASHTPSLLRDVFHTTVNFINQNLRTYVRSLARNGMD

Protein sequences, listed by entry. Tags and fused reporters are not part of them.
UniProt Q13535: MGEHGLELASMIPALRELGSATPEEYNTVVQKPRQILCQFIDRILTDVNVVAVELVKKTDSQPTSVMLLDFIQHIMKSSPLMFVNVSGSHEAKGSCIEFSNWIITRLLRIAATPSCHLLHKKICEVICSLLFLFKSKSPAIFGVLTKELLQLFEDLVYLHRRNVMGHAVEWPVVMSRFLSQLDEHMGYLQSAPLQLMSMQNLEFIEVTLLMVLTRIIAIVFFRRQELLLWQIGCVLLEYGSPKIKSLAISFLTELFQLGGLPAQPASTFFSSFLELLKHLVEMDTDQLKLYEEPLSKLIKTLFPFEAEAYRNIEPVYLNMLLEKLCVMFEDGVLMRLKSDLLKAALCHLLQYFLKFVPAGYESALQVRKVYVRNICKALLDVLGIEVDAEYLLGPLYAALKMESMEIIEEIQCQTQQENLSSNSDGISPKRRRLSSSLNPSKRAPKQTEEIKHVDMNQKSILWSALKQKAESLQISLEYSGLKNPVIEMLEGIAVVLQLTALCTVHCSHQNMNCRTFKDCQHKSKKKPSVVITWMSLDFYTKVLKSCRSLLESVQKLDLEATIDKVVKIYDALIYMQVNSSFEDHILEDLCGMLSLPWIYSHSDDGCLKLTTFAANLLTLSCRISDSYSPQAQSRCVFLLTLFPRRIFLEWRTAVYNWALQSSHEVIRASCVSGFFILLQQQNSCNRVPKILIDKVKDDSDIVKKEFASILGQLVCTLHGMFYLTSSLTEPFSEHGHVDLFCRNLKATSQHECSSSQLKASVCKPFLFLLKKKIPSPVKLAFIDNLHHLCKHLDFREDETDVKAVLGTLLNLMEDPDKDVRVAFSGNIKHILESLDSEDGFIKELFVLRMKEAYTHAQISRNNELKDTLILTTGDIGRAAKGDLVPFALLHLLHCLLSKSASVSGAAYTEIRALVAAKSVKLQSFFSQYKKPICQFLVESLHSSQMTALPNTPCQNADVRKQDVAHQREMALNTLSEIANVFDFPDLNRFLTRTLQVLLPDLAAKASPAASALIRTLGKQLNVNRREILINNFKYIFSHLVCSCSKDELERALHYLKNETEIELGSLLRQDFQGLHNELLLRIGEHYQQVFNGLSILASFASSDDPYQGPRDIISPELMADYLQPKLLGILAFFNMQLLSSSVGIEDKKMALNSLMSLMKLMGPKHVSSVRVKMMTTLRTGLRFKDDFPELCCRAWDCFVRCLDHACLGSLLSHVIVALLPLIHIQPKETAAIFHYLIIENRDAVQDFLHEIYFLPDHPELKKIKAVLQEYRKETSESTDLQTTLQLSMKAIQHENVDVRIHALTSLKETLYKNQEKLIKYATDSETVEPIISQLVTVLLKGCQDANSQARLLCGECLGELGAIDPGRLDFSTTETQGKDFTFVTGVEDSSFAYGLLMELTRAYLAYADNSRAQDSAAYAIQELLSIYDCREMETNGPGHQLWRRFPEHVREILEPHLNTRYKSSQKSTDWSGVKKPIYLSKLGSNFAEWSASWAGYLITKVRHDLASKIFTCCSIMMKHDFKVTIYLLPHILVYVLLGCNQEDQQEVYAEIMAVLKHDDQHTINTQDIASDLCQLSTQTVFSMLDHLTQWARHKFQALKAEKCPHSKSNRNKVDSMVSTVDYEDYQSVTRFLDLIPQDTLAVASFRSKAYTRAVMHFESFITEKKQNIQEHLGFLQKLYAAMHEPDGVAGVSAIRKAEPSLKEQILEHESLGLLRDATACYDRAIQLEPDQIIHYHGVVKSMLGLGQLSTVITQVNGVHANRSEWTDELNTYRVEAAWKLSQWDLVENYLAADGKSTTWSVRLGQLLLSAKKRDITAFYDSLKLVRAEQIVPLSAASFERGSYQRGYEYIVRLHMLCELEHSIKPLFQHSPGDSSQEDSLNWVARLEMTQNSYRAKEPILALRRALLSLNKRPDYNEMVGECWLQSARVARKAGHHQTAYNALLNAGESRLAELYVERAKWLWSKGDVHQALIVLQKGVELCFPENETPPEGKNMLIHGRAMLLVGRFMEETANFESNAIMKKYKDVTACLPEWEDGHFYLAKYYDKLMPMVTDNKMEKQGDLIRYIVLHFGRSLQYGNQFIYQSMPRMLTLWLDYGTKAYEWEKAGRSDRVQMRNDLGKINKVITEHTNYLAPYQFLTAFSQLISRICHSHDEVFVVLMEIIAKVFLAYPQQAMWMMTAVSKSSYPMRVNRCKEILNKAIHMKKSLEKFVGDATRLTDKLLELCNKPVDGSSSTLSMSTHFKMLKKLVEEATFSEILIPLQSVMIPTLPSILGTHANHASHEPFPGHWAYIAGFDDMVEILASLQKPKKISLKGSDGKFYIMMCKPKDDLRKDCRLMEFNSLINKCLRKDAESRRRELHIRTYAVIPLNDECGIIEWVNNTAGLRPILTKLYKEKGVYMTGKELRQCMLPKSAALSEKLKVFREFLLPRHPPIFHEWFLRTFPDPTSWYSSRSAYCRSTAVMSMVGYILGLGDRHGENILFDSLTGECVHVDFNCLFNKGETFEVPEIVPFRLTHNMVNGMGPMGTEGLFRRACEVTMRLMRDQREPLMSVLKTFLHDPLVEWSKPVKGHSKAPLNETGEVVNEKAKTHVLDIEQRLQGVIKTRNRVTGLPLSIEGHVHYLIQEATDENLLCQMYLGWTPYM

[2] = molecular target: T1, tBid, truncated C-terminal fragment of Bid (human (endogenous in Mia PaCa-2, G3K, G3K-R, PANC-1)); experiment: co-IP; immunoprecipitation from the cytoplasm fraction of Mia PaCa-2, G3K and G3K-R cells, Western blot; which protein was precipitated is not told
[3] = molecular target: T1, tBid, truncated C-terminal fragment of Bid (human (endogenous in Mia PaCa-2, G3K, G3K-R, PANC-1)); experiment: proximity ligation; Duolink PLA with ATR (rabbit) and BID (mouse) antibodies on cultured cells fixed with 4 % PFA and permeabilized with 0.5 % Triton, mitochondria labelled with mtHSP70 antibody; G3K, G3K-R and Mia PaCa-2 cells with or without LB-100; PANC-1 cells with gemcitabine or FOLFIRINOX, with or without LB-100
[4] = molecular target: T1, tBid, truncated C-terminal fragment of Bid (human (endogenous in Mia PaCa-2, G3K, G3K-R, PANC-1)); experiment: proximity ligation; Duolink PLA as in a1, parental Mia PaCa-2 cells

- binding [1]: binds
- binding [2]: binds
- binding [3]: binds
- binding [4]: binds weakly
Substance: ataxia telangiectasia and Rad3 related (ATR), mitochondria-targeted prolyl cis-isomeric form (mtATR) (from UniProt Q13535 1-2644)

Source: paper PMC13249146
